Data on two molecules can be found in article PMC12487280.

Protein sequences, listed by entry. Tags and fused reporters are not part of them.
UniProt Q14157: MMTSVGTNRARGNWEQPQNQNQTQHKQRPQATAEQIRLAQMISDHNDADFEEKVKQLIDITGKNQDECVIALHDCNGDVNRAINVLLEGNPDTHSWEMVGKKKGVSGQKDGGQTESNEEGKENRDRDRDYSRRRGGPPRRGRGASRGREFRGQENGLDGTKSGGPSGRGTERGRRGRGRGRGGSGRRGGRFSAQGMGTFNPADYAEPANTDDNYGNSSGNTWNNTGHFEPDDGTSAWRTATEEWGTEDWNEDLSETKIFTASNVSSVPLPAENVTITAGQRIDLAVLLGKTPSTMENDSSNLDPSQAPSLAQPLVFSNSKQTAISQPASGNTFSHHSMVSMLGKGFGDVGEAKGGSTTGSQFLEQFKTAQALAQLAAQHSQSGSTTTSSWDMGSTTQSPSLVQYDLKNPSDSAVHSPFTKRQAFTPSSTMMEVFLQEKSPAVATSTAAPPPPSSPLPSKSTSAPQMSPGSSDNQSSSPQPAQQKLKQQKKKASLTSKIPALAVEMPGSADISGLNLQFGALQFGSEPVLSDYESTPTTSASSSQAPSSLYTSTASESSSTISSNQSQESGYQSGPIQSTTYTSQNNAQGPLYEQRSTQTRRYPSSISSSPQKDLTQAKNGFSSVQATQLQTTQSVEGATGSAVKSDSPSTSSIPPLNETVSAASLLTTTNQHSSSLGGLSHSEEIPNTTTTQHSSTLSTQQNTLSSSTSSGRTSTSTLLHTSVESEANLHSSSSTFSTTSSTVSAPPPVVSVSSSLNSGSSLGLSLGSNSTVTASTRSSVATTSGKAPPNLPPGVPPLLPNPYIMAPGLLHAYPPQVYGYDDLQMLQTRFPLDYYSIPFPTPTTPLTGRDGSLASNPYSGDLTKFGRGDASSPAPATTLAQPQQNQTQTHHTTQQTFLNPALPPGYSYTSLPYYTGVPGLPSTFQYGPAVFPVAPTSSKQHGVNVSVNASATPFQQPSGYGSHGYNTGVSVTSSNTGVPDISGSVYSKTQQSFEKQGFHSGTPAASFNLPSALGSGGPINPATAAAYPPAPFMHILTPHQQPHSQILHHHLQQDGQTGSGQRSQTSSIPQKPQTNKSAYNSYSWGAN
UniProt O94972: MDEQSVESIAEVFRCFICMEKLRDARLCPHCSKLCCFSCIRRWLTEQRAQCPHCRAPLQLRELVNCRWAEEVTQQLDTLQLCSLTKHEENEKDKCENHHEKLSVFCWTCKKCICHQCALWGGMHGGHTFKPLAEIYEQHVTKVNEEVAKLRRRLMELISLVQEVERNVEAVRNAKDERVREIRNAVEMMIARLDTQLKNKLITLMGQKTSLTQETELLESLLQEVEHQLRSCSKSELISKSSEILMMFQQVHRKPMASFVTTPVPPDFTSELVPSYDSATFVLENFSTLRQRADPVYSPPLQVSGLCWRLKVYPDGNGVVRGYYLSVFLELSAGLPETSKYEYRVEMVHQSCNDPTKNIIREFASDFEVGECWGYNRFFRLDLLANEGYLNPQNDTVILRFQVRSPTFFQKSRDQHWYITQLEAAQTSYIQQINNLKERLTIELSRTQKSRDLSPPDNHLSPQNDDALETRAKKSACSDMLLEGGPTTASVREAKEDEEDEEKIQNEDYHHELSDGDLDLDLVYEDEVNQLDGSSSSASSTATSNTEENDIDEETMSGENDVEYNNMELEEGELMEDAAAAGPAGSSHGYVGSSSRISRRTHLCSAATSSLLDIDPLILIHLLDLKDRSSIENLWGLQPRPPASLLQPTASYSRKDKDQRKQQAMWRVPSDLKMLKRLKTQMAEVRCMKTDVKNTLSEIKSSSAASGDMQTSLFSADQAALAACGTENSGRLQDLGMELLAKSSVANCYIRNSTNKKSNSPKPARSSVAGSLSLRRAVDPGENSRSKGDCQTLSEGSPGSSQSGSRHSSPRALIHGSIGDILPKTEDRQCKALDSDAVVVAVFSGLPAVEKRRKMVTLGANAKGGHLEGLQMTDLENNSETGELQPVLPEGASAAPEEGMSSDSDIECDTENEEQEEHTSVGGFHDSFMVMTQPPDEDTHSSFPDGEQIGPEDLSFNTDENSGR

Read-outs that look alike come from different tables or passages of the source. No constants are given. Whether binding was seen depends on the method and setting. Binding seen in cells or lysates may run through a third protein. A yes stands for co-enrichment or nearness to the bait. Other partners may have been found.

The target in assay [1] is Flag-UBAP2L (ubiquitin-associated protein 2-like), expressed in 786-O cells (UniProt Q14157). Kind of assay: affinity purification with mass spectrometry; Flag antibody immunoprecipitation of Flag-UBAP2L from 786-O cells; SDS-PAGE, silver staining, bands excised for MS; IgG control.
For assay [2] the target is unchanged. The assay is described as above. The source holds these as a separate data set.

With “TRIM37, endogenous in ccRCC cells (from UniProt O94972 1-964) (enzyme)”, the binding result in assay [1] is reported as “binds”.

B1: OGT (O-GlcNAc transferase), endogenous in ccRCC cells (enzyme, UniProt O15294 1-1046)
chain: MASSVGNVADSTEPTKRMLSFQGLAELAHREYQAGDFEAAERHCMQLWRQEPDNTGVLLLLSSIHFQCRRLDRSAHFSTLAIKQNPLLAEAYSNLGNVYKERGQLQEAIEHYRHALRLKPDFIDGYINLAAALVAAGDMEGAVQAYVSALQYNPDLYCVRSDLGNLLKALGRLEEAKACYLKAIETQPNFAVAWSNLGCVFNAQGEIWLAIHHFEKAVTLDPNFLDAYINLGNVLKEARIFDRAVAAYLRALSLSPNHAVVHGNLACVYYEQGLIDLAIDTYRRAIELQPHFPDAYCNLANALKEKGSVAEAEDCYNTALRLCPTHADSLNNLANIKREQGNIEEAVRLYRKALEVFPEFAAAHSNLASVLQQQGKLQEALMHYKEAIRISPTFADAYSNMGNTLKEMQDVQGALQCYTRAIQINPAFADAHSNLASIHKDSGNIPEAIASYRTALKLKPDFPDAYCNLAHCLQIVCDWTDYDERMKKLVSIVADQLEKNRLPSVHPHHSMLYPLSHGFRKAIAERHGNLCLDKINVLHKPPYEHPKDLKLSDGRLRVGYVSSDFGNHPTSHLMQSIPGMHNPDKFEVFCYALSPDDGTNFRVKVMAEANHFIDLSQIPCNGKAADRIHQDGIHILVNMNGYTKGARNELFALRPAPIQAMWLGYPGTSGALFMDYIITDQETSPAEVAEQYSEKLAYMPHTFFIGDHANMFPHLKKKAVIDFKSNGHIYDNRIVLNGIDLKAFLDSLPDVKIVKMKCPDGGDNADSSNTALNMPVIPMNTIAEAVIEMINRGQIQITINGFSISNGLATTQINNKAATGEEVPRTIIVTTRSQYGLPEDAIVYCNFNQLYKIDPSTLQMWANILKRVPNSVLWLLRFPAVGEPNIQQYAQNMGLPQNRIIFSPVAPKEEHVRRGQLADVCLDTPLCNGHTTGMDVLWAGTPMVTMPGETLASRVAASQLTCLGCLELIAKNRQEYEDIAVKLGTDLEYLKKVRGKVWKQRISSPLFNTKQYTMELERLYLQMWEHYAAGNKPDHMIKPVEVTESA
For the molecule B1, the binding result in assay [2] is on record as “binds”.
